Experimental data reported in publication PMC4649535.
No constants are given. Whether binding was seen depends on the method and setting. For part of these data: In cells and extracts the contact can be indirect. Some binding calls cover weakened binding; strength is not graded here. For part of these data: Sequences can lack the tags named with a protein.

What was measured:
[1] = target: T1, Arrest defective 1 (ARD1), full-length human, yeast two-hybrid bait (human) (UniProt P41227); assay: two-hybrid; yeast two-hybrid screen of a human liver cDNA library with full-length human ARD1 as bait; selection with three reporters
T1 sequence: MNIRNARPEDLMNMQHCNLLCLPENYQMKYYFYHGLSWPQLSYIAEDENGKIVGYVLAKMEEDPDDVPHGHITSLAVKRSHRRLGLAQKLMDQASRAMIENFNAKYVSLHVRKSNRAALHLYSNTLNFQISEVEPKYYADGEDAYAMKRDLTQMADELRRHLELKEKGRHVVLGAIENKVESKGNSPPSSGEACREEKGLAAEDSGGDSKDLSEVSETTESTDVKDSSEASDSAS

Flag-MSRA (human) = target: T2, Flag-MSRA (human) (UniProt Q9UJ68); assay: co-IP; HEK293T cotransfected with pARD1 and pFlag-MSRA; lysates immunoprecipitated with anti-Flag, immunoblotted for ARD1 and Flag-MSRA
T2 sequence: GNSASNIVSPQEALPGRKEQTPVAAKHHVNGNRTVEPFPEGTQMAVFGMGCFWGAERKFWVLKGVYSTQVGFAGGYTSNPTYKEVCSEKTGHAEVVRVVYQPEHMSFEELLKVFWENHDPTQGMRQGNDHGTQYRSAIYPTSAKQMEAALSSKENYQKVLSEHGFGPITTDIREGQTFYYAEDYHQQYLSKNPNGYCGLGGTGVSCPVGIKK

[2] = target: T3, ARD1 expressed from pARD1 (pcDNA) (human) (UniProt P41227); assay: co-IP; HEK293T cotransfected with ARD1 and MSRA plasmids; antibodies for immunoprecipitation and immunoblotting exchanged relative to Figure 1a
T3 sequence: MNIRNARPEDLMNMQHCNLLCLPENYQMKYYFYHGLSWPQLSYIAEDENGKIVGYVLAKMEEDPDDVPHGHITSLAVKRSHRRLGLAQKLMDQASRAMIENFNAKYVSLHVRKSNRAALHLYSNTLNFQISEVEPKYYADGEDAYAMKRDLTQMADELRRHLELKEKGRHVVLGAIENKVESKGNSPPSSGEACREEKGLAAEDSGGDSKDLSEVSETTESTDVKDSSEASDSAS

[3] = target: T4, endogenous ARD1 (human (endogenous in HEK293T and A549)) (UniProt P41227); assay: co-IP; endogenous proteins; HEK293T or A549 lysates immunoprecipitated with anti-ARD1, MSRA immunoblotted
T4 sequence: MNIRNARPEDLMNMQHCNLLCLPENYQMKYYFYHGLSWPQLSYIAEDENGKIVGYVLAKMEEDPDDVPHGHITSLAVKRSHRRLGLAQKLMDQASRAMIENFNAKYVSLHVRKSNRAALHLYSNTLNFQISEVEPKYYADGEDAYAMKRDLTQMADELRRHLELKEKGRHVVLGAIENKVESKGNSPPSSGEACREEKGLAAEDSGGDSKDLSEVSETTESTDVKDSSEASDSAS

[4] = target: T5, glutathione S-transferase-tagged MSRA (GST-MSRA) (human) (UniProt Q9UJ68); assay: pull-down; GST pull-down: 1 mg GST-MSRA and 0.5 mg His-ARD1 in 25 mM HEPES pH 7.5, 150 mM KCl, 12.5 mM MgCl2, 20 uM ZnCl2, 5 mM DTT, 0.1% NP40, 10% glycerol, 4 °C, 4 h; glutathione-affinity beads; immunoblot; both purified
T5 sequence: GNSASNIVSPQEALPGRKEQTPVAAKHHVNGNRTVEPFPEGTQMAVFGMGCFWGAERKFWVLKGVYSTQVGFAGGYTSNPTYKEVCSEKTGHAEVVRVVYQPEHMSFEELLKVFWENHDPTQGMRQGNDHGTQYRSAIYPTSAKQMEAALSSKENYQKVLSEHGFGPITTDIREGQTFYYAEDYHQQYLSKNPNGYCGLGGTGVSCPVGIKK

B1: MSRA amino acids 126-235, two-hybrid library clone (domain or fragment, UniProt Q9UJ68-1 126-235)
chain: EHMSFEELLKVFWENHDPTQGMRQGNDHGTQYRSAIYPTSAKQMEAALSSKENYQKVLSEHGFGPITTDIREGQTFYYAEDYHQQYLSKNPNGYCGLGGTGVSCPVGIKK
[1]
  binding: binds

B2: MSRA amino acids 132-235, two-hybrid library clone (domain or fragment, UniProt Q9UJ68-1 132-235)
chain: ELLKVFWENHDPTQGMRQGNDHGTQYRSAIYPTSAKQMEAALSSKENYQKVLSEHGFGPITTDIREGQTFYYAEDYHQQYLSKNPNGYCGLGGTGVSCPVGIKK
[1]
  binding: binds

B3: ARD1 expressed from pARD1 (pcDNA) (enzyme, UniProt P41227-1 1-235)
chain: MNIRNARPEDLMNMQHCNLLCLPENYQMKYYFYHGLSWPQLSYIAEDENGKIVGYVLAKMEEDPDDVPHGHITSLAVKRSHRRLGLAQKLMDQASRAMIENFNAKYVSLHVRKSNRAALHLYSNTLNFQISEVEPKYYADGEDAYAMKRDLTQMADELRRHLELKEKGRHVVLGAIENKVESKGNSPPSSGEACREEKGLAAEDSGGDSKDLSEVSETTESTDVKDSSEASDSAS
Flag-MSRA (human)
  binding: binds

B4: Flag-MSRA (enzyme, UniProt Q9UJ68-1 24-235)
chain: GNSASNIVSPQEALPGRKEQTPVAAKHHVNGNRTVEPFPEGTQMAVFGMGCFWGAERKFWVLKGVYSTQVGFAGGYTSNPTYKEVCSEKTGHAEVVRVVYQPEHMSFEELLKVFWENHDPTQGMRQGNDHGTQYRSAIYPTSAKQMEAALSSKENYQKVLSEHGFGPITTDIREGQTFYYAEDYHQQYLSKNPNGYCGLGGTGVSCPVGIKK
[2]
  binding: binds

B5: endogenous MSRA (enzyme, UniProt Q9UJ68-1 24-235)
chain: GNSASNIVSPQEALPGRKEQTPVAAKHHVNGNRTVEPFPEGTQMAVFGMGCFWGAERKFWVLKGVYSTQVGFAGGYTSNPTYKEVCSEKTGHAEVVRVVYQPEHMSFEELLKVFWENHDPTQGMRQGNDHGTQYRSAIYPTSAKQMEAALSSKENYQKVLSEHGFGPITTDIREGQTFYYAEDYHQQYLSKNPNGYCGLGGTGVSCPVGIKK
[3]
  binding: binds

B6: His-tagged ARD1 (His-ARD1) (enzyme, UniProt P41227-1 1-235)
chain: MNIRNARPEDLMNMQHCNLLCLPENYQMKYYFYHGLSWPQLSYIAEDENGKIVGYVLAKMEEDPDDVPHGHITSLAVKRSHRRLGLAQKLMDQASRAMIENFNAKYVSLHVRKSNRAALHLYSNTLNFQISEVEPKYYADGEDAYAMKRDLTQMADELRRHLELKEKGRHVVLGAIENKVESKGNSPPSSGEACREEKGLAAEDSGGDSKDLSEVSETTESTDVKDSSEASDSAS
[4]
  binding: binds
